Measurements published in the supplement of paper PMC12889115.
This is one part of the list. These are raw signals, not scaled to a control.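 In the initial screen, polymyxin B was used at a concentration that permeabilizes Salmonella's outer membrane but not its inner membrane. Maximum growth was set by DMSO wells with or without polymyxin B. Since plates varied, data were ranked per plate, and compounds giving the lowest OD600 advanced as hits.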

Test system: Salmonella enterica serovar Typhimurium SL1344
Assay: bacterial growth OD600 after 18 h with compound and polymyxin B; higher = more bacterial growth (less inhibition)
Details: 50 µM, Mueller-Hinton broth

Row | SMILES | bacterial growth OD600 (polymyxin B 1 µg/mL) | bacterial growth OD600 (polymyxin B 0.75 µg/mL)
1 | OC1CCN([C@@H]2CCN(Cc3ccccc3C#Cc3ccccc3)C[C@H]2O)CC1 | 1.13 | 
2 | Cc1ccccc1CC1(CO)CCCN(C(=O)c2ccccc2Cl)C1 (stereo not drawn) | 0.532 | 
3 | Cn1cc(CN2CCCC(C(N)=O)C2)c(-c2ccc(Oc3ccccc3)cc2)n1 (stereo not drawn) | 0.847 | 
4 | O=C(CCN1Cc2ccccc2OC(c2ccccc2)C1)NCC1(N2CCOCC2)CCCC1 (stereo not drawn) |  | 0.888
5 | CCN(CCN(C)C)C(=O)C1CC(=O)c2sc(NC(=O)c3cccc(F)c3)nc2C1 (stereo not drawn) |  | 0.777
6 | Cc1cccc(-c2cnc(-c3ccncc3)nc2C2CCN(Cc3ccsc3)CC2)c1 |  | 0.728
7 | COc1cccc(C(=O)NCC2CCCN(CC#Cc3ccccc3)C2)c1OC (stereo not drawn) | 0.766 | 
8 | O=C(Cc1ccccc1)N1CCC(C2(c3ccccn3)NC(=O)N(CCc3cccs3)C2=O)CC1 (stereo not drawn) |  | 0.954
